# Test results published in publication doi:10.1101/709196 (bioRxiv, 2019).
# No constants are given. Whether binding was seen depends on the method and setting. Sequences can lack the tags named with a protein.
# Biological target: SS-EGFP-SUN2^595-731 (UniProt Q8BJS4)
# Experiment: dual-color fluorescence fluctuation spectroscopy
binder,measurement,value
"SS-EGFP-SUN2^595-731 (domain or fragment, UniProt Q8BJS4 595-731) LWYHSQSPRVILQPDVHPGNCWAFQGPQGFAVVRLSARIRPTAVTLEHVPKALSPNSTISSAPKDFAIFGFDEDLQQEGTLLGTFAYDQDGEPIQTFYFQASKMATYQVVELRILTNWGHPEYTCIYRFRVHGEPAH",binding,no binding
